Assay results published in the supplement of paper PMC11732987, “Enantioselective OTUD7B fragment discovery through chemoproteomics screening and high-throughput optimisation” (Communications Chemistry, 2025).
The other results are listed elsewhere or left out. The data scatter; read single values as rough.

Amino acid sequences for entries named in this document (tags omitted). A change or cut given only in a name is not applied to a line headed by its entry. Residues count along the entry.
UniProt Q01081: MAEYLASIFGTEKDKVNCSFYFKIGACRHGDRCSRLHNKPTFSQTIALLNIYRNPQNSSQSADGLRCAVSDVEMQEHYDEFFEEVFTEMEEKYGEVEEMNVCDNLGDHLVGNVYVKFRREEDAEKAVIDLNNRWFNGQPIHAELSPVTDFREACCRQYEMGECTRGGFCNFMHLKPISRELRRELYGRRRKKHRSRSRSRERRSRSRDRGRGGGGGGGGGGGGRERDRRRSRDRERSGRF
UniProt O14530: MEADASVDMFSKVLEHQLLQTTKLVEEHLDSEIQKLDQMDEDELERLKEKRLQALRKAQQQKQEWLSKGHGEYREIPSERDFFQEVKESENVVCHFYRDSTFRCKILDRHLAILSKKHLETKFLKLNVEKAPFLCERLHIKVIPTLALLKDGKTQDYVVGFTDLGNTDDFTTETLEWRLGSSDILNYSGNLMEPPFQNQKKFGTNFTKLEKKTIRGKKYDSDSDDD
UniProt Q9Y4A5: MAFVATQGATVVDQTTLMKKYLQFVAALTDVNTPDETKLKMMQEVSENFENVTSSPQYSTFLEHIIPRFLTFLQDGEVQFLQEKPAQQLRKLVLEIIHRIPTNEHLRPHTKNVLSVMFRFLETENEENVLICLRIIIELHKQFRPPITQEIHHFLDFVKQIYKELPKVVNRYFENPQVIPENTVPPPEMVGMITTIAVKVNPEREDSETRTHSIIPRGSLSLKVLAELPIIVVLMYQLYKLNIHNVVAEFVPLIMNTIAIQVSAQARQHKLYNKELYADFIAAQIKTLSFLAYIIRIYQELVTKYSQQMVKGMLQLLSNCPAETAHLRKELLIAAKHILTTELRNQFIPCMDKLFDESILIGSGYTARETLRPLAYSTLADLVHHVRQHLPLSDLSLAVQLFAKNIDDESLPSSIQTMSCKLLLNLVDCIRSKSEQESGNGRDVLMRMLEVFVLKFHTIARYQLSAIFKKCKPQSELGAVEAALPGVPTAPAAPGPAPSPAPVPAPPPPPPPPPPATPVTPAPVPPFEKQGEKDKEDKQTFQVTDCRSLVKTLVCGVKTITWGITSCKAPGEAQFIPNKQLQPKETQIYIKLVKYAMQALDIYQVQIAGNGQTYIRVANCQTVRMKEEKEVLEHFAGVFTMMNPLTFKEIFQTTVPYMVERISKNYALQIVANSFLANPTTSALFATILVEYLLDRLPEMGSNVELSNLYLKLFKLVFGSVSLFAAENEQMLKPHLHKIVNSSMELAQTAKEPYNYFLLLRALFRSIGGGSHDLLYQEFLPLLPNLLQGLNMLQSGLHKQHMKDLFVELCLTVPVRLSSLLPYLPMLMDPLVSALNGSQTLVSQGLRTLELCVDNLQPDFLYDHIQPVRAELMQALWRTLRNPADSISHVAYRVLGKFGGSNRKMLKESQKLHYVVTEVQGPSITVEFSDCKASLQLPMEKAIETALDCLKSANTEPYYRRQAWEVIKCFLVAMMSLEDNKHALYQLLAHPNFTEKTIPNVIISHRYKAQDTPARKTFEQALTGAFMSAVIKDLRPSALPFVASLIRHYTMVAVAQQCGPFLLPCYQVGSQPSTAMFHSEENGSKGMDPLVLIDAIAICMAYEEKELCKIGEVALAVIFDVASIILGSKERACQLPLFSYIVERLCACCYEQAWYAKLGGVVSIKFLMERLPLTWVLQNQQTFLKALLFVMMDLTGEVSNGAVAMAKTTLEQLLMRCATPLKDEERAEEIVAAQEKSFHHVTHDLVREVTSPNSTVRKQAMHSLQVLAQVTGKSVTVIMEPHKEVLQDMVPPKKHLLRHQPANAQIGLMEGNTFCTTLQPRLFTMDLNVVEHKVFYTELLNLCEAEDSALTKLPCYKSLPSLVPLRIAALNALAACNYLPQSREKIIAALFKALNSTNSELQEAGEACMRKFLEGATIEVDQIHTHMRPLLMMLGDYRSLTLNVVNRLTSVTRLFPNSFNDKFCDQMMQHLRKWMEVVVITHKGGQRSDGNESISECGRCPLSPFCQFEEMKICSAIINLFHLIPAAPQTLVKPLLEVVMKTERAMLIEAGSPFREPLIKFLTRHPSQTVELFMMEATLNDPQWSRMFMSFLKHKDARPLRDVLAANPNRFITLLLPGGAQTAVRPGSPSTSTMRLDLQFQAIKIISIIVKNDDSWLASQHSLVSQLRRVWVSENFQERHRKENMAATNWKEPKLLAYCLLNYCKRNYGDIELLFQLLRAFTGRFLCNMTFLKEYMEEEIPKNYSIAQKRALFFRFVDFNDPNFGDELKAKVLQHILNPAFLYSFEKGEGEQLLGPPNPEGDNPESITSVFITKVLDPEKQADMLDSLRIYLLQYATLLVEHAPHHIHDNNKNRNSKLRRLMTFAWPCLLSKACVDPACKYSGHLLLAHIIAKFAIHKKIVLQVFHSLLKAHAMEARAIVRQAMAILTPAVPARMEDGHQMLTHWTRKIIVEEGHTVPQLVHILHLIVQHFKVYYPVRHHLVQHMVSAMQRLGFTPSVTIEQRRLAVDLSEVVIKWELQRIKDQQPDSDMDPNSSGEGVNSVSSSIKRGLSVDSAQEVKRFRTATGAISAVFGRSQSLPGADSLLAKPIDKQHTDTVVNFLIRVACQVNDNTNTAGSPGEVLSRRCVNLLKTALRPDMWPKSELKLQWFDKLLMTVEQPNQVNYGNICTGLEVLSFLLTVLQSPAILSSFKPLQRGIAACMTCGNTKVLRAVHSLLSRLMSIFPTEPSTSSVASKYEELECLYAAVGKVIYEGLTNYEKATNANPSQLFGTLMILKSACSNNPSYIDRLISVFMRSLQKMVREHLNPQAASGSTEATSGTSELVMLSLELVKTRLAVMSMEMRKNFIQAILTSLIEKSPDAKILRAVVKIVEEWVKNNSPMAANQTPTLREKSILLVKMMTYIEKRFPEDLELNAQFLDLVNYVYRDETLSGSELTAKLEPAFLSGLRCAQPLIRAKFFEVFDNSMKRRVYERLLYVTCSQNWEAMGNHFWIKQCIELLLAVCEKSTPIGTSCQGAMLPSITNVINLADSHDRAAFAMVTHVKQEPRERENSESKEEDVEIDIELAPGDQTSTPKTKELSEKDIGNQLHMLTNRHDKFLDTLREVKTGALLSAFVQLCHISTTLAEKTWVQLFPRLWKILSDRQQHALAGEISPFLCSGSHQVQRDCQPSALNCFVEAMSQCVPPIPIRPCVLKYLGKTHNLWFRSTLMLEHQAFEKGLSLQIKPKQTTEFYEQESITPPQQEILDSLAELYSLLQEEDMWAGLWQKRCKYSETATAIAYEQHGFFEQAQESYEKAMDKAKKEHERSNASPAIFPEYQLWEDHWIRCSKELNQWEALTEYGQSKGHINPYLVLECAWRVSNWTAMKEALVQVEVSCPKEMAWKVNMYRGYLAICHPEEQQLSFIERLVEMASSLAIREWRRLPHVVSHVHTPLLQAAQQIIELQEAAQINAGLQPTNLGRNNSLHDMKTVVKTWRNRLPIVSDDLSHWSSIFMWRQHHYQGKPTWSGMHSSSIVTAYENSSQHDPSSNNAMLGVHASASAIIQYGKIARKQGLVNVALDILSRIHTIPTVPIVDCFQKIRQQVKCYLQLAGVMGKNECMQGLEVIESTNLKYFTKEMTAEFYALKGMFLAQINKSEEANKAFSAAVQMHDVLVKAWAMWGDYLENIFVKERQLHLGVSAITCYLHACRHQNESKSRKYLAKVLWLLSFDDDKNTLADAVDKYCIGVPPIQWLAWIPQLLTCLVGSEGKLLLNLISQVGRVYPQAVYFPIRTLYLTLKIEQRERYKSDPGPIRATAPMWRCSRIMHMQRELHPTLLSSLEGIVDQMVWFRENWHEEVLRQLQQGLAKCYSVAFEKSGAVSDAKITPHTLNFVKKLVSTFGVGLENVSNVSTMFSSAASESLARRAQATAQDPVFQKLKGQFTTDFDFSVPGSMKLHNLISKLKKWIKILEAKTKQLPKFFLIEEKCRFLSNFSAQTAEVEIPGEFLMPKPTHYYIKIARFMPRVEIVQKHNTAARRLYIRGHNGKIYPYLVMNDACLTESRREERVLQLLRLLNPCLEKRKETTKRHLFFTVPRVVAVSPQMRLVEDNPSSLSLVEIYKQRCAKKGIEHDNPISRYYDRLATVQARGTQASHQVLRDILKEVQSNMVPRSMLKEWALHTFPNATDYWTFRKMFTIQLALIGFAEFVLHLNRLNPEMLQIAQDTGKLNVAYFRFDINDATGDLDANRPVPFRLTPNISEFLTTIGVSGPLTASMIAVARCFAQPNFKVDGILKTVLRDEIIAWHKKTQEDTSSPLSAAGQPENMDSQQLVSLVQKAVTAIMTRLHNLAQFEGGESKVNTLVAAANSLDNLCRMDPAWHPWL
UniProt Q5T4S7, 3380-3401: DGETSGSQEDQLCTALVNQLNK
UniProt P68371, whole entry, looked up: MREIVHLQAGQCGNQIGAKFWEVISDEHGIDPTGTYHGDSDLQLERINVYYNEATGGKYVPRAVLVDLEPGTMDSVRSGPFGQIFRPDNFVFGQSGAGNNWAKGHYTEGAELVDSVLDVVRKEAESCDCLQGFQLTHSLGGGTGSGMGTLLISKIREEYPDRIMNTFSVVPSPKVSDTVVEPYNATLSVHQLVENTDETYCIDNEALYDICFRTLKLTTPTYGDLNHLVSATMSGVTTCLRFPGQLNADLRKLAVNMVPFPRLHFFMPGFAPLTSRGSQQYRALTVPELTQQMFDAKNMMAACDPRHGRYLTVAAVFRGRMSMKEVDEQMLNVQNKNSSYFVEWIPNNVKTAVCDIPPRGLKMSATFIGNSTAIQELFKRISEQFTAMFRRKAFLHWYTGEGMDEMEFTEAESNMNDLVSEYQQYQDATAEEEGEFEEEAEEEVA
UniProt Q5BVD1: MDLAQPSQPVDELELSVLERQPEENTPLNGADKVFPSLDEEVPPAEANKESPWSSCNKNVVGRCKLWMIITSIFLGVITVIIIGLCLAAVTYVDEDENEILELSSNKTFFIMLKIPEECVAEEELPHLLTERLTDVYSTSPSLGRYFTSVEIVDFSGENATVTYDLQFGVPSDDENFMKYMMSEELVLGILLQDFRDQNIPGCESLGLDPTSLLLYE
UniProt Q9NUQ3: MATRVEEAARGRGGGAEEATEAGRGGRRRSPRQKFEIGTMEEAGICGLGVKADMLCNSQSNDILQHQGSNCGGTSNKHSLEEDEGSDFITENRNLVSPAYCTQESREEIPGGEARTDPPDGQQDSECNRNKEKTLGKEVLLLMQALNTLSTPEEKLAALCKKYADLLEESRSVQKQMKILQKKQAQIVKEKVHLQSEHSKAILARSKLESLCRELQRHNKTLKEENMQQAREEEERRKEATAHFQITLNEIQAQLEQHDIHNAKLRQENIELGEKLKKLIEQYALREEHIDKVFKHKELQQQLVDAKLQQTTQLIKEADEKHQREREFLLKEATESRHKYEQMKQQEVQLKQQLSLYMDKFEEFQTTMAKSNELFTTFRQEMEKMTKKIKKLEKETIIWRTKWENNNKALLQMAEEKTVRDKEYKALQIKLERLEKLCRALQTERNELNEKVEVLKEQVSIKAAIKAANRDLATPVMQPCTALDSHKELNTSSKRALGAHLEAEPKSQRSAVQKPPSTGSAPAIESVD

Each target was assayed with ClCC(=O)N[C@H]1CCCc2ccccc12 (assay: log2 mean competition ratio of IA-DTB cysteine labelling (DMSO/compound) (log2 ratio); higher = stronger cysteine engagement by compound). Details: 200 µM; treatment time: 4 h; cell line lysate: HEK293T.
Experimental: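 IA-DTB competitive cysteine chemoproteomics in HEK293T RIPA lysate. Lysates were treated with compound 29 or 30 at 50 or 200 µM for 4 h, then IA-DTB (500 µM, 1 h), trypsin-digested, NeutrAvidin-enriched and analysed by diaPASEF. Competition ratio = intensity DMSO / intensity compound (n=4 treated, n=64 DMSO); binding: mean log2 CR ≥ 1 and p ≤ 0.05 plus QC filters. Target is the cysteine site.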

| Target | log2 mean competition ratio |
| --- | --- |
| U2AF1 C163 (UniProt Q01081) | 0.433 |
| TXNDC9 C135 (UniProt O14530) | -0.0844 |
| TRRAP C3098 (UniProt Q9Y4A5) | -0.172 |
| UBR2 C19 (UniProt Q8IWV8) | -0.179 |
| UBAP2 C104 | 0.265 |
| UBR4 C3392 (UniProt Q5T4S7) | -0.0544 |
| TUBB4B C303 (UniProt P68371) | -0.182 |
| TTMP C119 (UniProt Q5BVD1) | -0.247 |
| TXLNG C101 (UniProt Q9NUQ3) | 0.0316 |
| UBE4B C829 (UniProt O95155) | 0.0509 |
| UBE4B C113 (UniProt O95155) | 0.0766 |
